Measurements reported in PubChem BioAssay AID1508597 (Cure First, 2020)
Shown is an unselected part of the about 2,100 reagents, under one of the conditions tested. 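Calls flag viability under 80% in either arm, not effects specific to rucaparib; the reference for percent is not stated.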 A reagent listed more than once was tested more than once; the source does not tell the runs apart. The record does not give: the 100% reference.

- Aim: 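Survival screen with siRNA in ovarian cancer cells derived from patients, with or without rucaparib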 (primary screen)
- Cell system: human ovarian carcinoma lines grown from tumours: OCI-P5x (papillary serous) and OCI-C5x (clear cell)
- Knock-down reagent: siRNA pool against human genes, 1.25 pmol siRNA per well
- Timing: 72 h or 96 h, depending on the cell culture
- Conditions: rucaparib 20 µM (about IC30) or vehicle, present until read-out
- Rucaparib or vehicle: Rucaparib
- Cell line: OCI-P5x (serous)
- Measurement: 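Luminescent ATP-based viability assay read 72 or 96 h after transfection, depending on culture, given as normalised percent viability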
- Reading the numbers: viability, normalised: higher = more viable cells remaining
- Rule for the call: 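Active when normalised viability falls below 80 percent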
- Meaning of the calls: active = viability under 80%; inactive = viability 80% or more

gene	technical replicate	viability, normalised (%)	Outcome
DDX23	1	59.7	active
DDX23	2	60.4	active
DDX23	3	60.4	active
MYPOP	1	36.4	active
MYPOP	2	46.6	active
MYPOP	3	34.5	active
MAP2K3	1	82.3	inactive
MAP2K3	1	53.4	active
MAP2K3	2	77.5	active
MAP2K3	2	51.1	active
MAP2K3	3	82.9	inactive
MAP2K3	3	62.8	active
PDE3B	1	46	active
PDE3B	2	52.4	active
PDE3B	3	53.9	active
MED17	1	44	active
MED17	2	40.1	active
MED17	3	47.4	active
DCP2	1	67.9	active
DCP2	2	70.7	active
DCP2	3	72.2	active
MAU2	1	78.8	active
MAU2	2	77.4	active
MAU2	3	76.9	active

Reformatted: results already given.
{"gene": "MAP2K3", "technical replicate": "1", "viability, normalised (%)": 53.4, "Outcome": "active"}
{"gene": "MAP2K3", "technical replicate": "2", "viability, normalised (%)": 77.5, "Outcome": "active"}
